Structures can show the parent of a compound that is named as a salt. ± gives the standard deviation of the averaged measurements. This is one part of the list. The data scatter; read single values as rough.
Assays:
[1] = system: hAMSC donor 1; experiment: Hoechst total cell count ratio vs vehicle control; higher = more cells (less toxicity)
[2] = system: hAMSC donor 2; experiment: as above
[3] = system: hAMSC donor 1; experiment: transgenic luciferase activity (RLU/mg protein) fold change vs vehicle control (ratio); higher = more transgene expression
[4] = system: hAMSC donor 2; experiment: as above
[5] = system: hAMSC donor 1; experiment: transfection efficiency (EGFP+ cells / Hoechst count) fold change vs vehicle control (ratio); hAMSC are human adipose-derived mesenchymal stem cells given an EGFP-luciferase plasmid by lipofection; higher = enhanced transfection
[6] = system: hAMSC donor 2; experiment: as above
[7] = priming compound concentration 0.2 µM
[8] = priming compound concentration 1.7 µM
[9] = priming compound concentration 13 µM

| Compound | Hoechst total cell count ratio [1, 7] | Hoechst total cell count ratio [1, 8] | Hoechst total cell count ratio [1, 9] | Hoechst total cell count ratio [2, 7] | Hoechst total cell count ratio [2, 8] | Hoechst total cell count ratio [2, 9] | transgenic luciferase activity [3, 9] | transgenic luciferase activity [4, 7] | transgenic luciferase activity [4, 9] | transfection efficiency [5, 7] | transfection efficiency [5, 8] | transfection efficiency [5, 9] | transfection efficiency [6, 7] | transfection efficiency [6, 8] | transfection efficiency [6, 9] | transgenic luciferase activity [3, 8] | transgenic luciferase activity [4, 8] |
| --- | --- | --- | --- | --- | --- | --- | --- | --- | --- | --- | --- | --- | --- | --- | --- | --- | --- |
| Nc1ccc(S(=O)(=O)c2ccc(N)cc2)cc1 [Dapsone] | 1.12 ± 0.2 | 1.56 ± 0.17 | 1.54 ± 0.036 | 1.25 ± 0.11 | 1.09 ± 0.12 | 1.12 ± 0.24 | 2.96 ± 0.46 | 0.751 ± 0.093 | 1.97 ± 0.6 | 1.14 ± 0.27 | 1.34 ± 0.26 | 0.98 ± 0.048 | 1.33 ± 0.25 | 1.04 ± 0.065 | 1.67 ± 0.3 | – | – |
| CC(C)NCC(O)c1ccc(NS(C)(=O)=O)cc1 (stereo not given) [Sotalol hydrochloride] | 1.18 ± 0.064 | 1.06 ± 0.11 | 1.19 ± 0.051 | 0.982 ± 0.25 | 1.43 ± 0.13 | 1.25 ± 0.19 | – | 1.03 ± 0.28 | – | 0.868 ± 0.35 | 1.2 ± 0.23 | 1.16 ± 0.58 | 1.28 ± 0.17 | 0.842 ± 0.16 | 0.961 ± 0.16 | 0.791 ± 0.079 | 1.11 ± 0.24 |
| Cc1ncc([N+](=O)[O-])n1CCO [Metronidazole] | 1.05 ± 0.11 | 1.02 ± 0.036 | 1.01 ± 0.11 | 1.3 ± 0.27 | 1.19 ± 0.13 | 1.08 ± 0.029 | – | 1.25 ± 0.4 | – | 1.25 ± 0.49 | 1.26 ± 0.36 | 1.3 ± 0.57 | 0.925 ± 0.077 | 1.15 ± 0.34 | 1.08 ± 0.46 | 1.57 ± 0.79 | 1.37 ± 0.096 |
| CC(N)C12CC3CC(CC(C3)C1)C2 (stereo not given) [Flumadine hydrochloride] | 1.06 ± 0.054 | 1.01 ± 0.039 | 0.968 ± 0.065 | 1.21 ± 0.13 | 1.38 ± 0.29 | 1.43 ± 0.25 | – | 0.864 ± 0.16 | – | 0.916 ± 0.18 | 0.533 ± 0.13 | 1.5 ± 0.58 | 1.13 ± 0.28 | 1.17 ± 0.2 | 1.05 ± 0.31 | 0.653 ± 0.2 | 1.089 ± 0.0053 |
| CC[C@@H](CO)NCCN[C@@H](CC)CO [Ethambutol] | 1.23 ± 0.044 | 1.17 ± 0.068 | 1.22 ± 0.12 | 1.16 ± 0.19 | 1.14 ± 0.15 | 1.1 ± 0.15 | – | 0.846 ± 0.27 | – | 0.969 ± 0.32 | 1.11 ± 0.12 | 1.22 ± 0.18 | 1.08 ± 0.2 | 0.994 ± 0.097 | 1.16 ± 0.29 | 0.752 ± 0.033 | 1.09 ± 0.3 |
| C=CC[C@@H]1/C=C(\C)C[C@H](C)C[C@H](OC)[C@H]2O[C@@](O)(C(=O)C(=O)N3CCCC[C@H]3C(=O)O[C@H](/C(C)=C/[C@@H]3CC[C@@H](O)[C@H](OC)C3)[C@H](C)[C@@H](O)CC1=O)[C@H](C)C[C@@H]2OC [Tacrolimus] | 1.45 ± 0.13 | 1.5 ± 0.1 | 1.54 ± 0.15 | 1.11 ± 0.29 | 1.28 ± 0.076 | 1.22 ± 0.15 | – | – | 0.651 ± 0.05 | 0.924 ± 0.19 | 1.01 ± 0.33 | 0.792 ± 0.23 | 0.993 ± 0.24 | 0.988 ± 0.041 | 0.994 ± 0.19 | 1.16 ± 0.39 | 0.93 ± 0.23 |
| C[N+]1(C)CCC(OC(=O)C(O)(c2ccccc2)C2CCCC2)C1 (stereo not given) [Glycopyrronium bromide] | 1.16 ± 0.1 | 1.06 ± 0.024 | 0.921 ± 0.087 | 1.3 ± 0.031 | 1.3 ± 0.12 | 1.1 ± 0.16 | – | 0.754 ± 0.36 | – | 0.953 ± 0.094 | 1.11 ± 0.22 | 1.13 ± 0.66 | 0.922 ± 0.18 | 1.17 ± 0.059 | 1.21 ± 0.25 | 0.758 ± 0.27 | 0.656 ± 0.062 |
| CN[C@@H]1[C@H](O)[C@H](NC)[C@H]2O[C@@]3(O)C(=O)C[C@@H](C)O[C@H]3O[C@@H]2[C@H]1O [Spectinomycin] | 1.27 ± 0.069 | 1.23 ± 0.26 | 1.36 ± 0.083 | 1.35 ± 0.12 | 1.24 ± 0.13 | 1.23 ± 0.24 | – | – | 0.473 ± 0.088 | 1.28 ± 0.17 | 1.31 ± 0.47 | 1.28 ± 0.28 | 0.874 ± 0.11 | 0.887 ± 0.057 | 0.989 ± 0.051 | 1.22 ± 0.45 | 0.393 ± 0.26 |
| CS(=O)(=O)OCCCCOS(C)(=O)=O [Busulfan] | 1.18 ± 0.11 | 1.22 ± 0.048 | 1.24 ± 0.1 | 1.04 ± 0.26 | 0.929 ± 0.061 | 1.1 ± 0.061 | – | 1.49 ± 0.51 | – | 1.11 ± 0.23 | 0.508 ± 0.033 | 1.28 ± 0.21 | 0.941 ± 0.16 | 1.24 ± 0.041 | 1.24 ± 0.11 | 0.343 ± 0.0044 | 1.01 ± 0.46 |
| O=c1[nH]cnc2c1ncn2[C@H]1CC[C@@H](CO)O1 [Didanosine] | 1.2 ± 0.17 | 1.24 ± 0.22 | 1.6 ± 0.1 | 1.2 ± 0.23 | 1.19 ± 0.091 | 1.17 ± 0.033 | – | – | 0.518 ± 0.093 | 0.938 ± 0.091 | 1.15 ± 0.061 | 0.866 ± 0.21 | 1.18 ± 0.042 | 1.17 ± 0.12 | 0.943 ± 0.059 | 0.792 ± 0.057 | 0.795 ± 0.13 |
| CNS(=O)(=O)Cc1ccc2[nH]cc(CCN(C)C)c2c1 [Sumatriptan succinate] | 1.41 ± 0.043 | 1.21 ± 0.25 | 1.39 ± 0.097 | 1.33 ± 0.072 | 1.2 ± 0.1 | 1.22 ± 0.1 | – | – | 0.669 ± 0.15 | 0.969 ± 0.15 | 1.15 ± 0.36 | 1.35 ± 0.57 | 0.851 ± 0.23 | 0.87 ± 0.11 | 1.03 ± 0.047 | 1.37 ± 0.24 | 0.63 ± 0.48 |
| CN1CCN(CCCN2c3ccccc3Sc3ccc(Cl)cc32)CC1 [Prochlorperazine maleate] | 1.03 ± 0.11 | 0.993 ± 0.028 | 1.07 ± 0.065 | 1.21 ± 0.06 | 1.51 ± 0.062 | 1.23 ± 0.068 | – | – | 0.379 ± 0.11 | 1.05 ± 0.28 | 0.953 ± 0.068 | 0.618 ± 0.018 | 1.01 ± 0.022 | 1.02 ± 0.067 | 0.776 ± 0.11 | 1.69 ± 0.17 | 0.597 ± 0.35 |
| CN(C)CCC=C1c2ccccc2COc2ccccc21 [Doxepin hydrochloride] | 1.46 ± 0.034 | 1.39 ± 0.41 | 1.55 ± 0.14 | 1.19 ± 0.035 | 1.33 ± 0.02 | 1.68 ± 0.14 | 1.04 ± 0.17 | 0.746 ± 0.057 | 0.402 ± 0.12 | 0.777 ± 0.32 | 0.929 ± 0.39 | 0.749 ± 0.37 | 1.1 ± 0.32 | 0.782 ± 0.044 | 0.69 ± 0.15 | – | – |
| COc1c(N2CCNC(C)C2)c(F)cc2c(=O)c(C(=O)O)cn(C3CC3)c12 (stereo not given) [Gatifloxacin] | 1.11 ± 0.021 | 1.09 ± 0.083 | 1.16 ± 0.02 | 1.222 ± 0.006 | 1.19 ± 0.14 | 1.23 ± 0.16 | – | 1.19 ± 0.69 | – | 1.04 ± 0.22 | 1.11 ± 0.28 | 1.48 ± 0.38 | 1.38 ± 0.22 | 1.12 ± 0.36 | 1.2 ± 0.14 | 0.993 ± 0.17 | 0.874 ± 0.17 |
| Nc1nc2ccc(OC(F)(F)F)cc2s1 [Riluzole hydrochloride] | 1.12 ± 0.075 | 1.08 ± 0.027 | 1.21 ± 0.12 | 1.04 ± 0.1 | 1.1 ± 0.14 | 1.68 ± 0.081 | – | 0.893 ± 0.099 | – | 0.88 ± 0.029 | 0.996 ± 0.16 | 1.03 ± 0.45 | 1.38 ± 0.16 | 1.06 ± 0.34 | 0.662 ± 0.1 | 1 ± 0.27 | 1.04 ± 0.21 |

Record cards (already shown). Order of values: Hoechst total cell count ratio [1, 7] | Hoechst total cell count ratio [1, 8] | Hoechst total cell count ratio [1, 9] | Hoechst total cell count ratio [2, 7] | Hoechst total cell count ratio [2, 8] | Hoechst total cell count ratio [2, 9] | transgenic luciferase activity [3, 9] | transgenic luciferase activity [4, 7] | transgenic luciferase activity [4, 9] | transfection efficiency [5, 7] | transfection efficiency [5, 8] | transfection efficiency [5, 9] | transfection efficiency [6, 7] | transfection efficiency [6, 8] | transfection efficiency [6, 9] | transgenic luciferase activity [3, 8] | transgenic luciferase activity [4, 8]
CC[C@@H](CO)NCCN[C@@H](CC)CO [Ethambutol] is entered as 1.23 ± 0.044 | 1.17 ± 0.068 | 1.22 ± 0.12 | 1.16 ± 0.19 | 1.14 ± 0.15 | 1.1 ± 0.15 | – | 0.846 ± 0.27 | – | 0.969 ± 0.32 | 1.11 ± 0.12 | 1.22 ± 0.18 | 1.08 ± 0.2 | 0.994 ± 0.097 | 1.16 ± 0.29 | 0.752 ± 0.033 | 1.09 ± 0.3
Cc1ncc([N+](=O)[O-])n1CCO [Metronidazole] is entered as 1.05 ± 0.11 | 1.02 ± 0.036 | 1.01 ± 0.11 | 1.3 ± 0.27 | 1.19 ± 0.13 | 1.08 ± 0.029 | – | 1.25 ± 0.4 | – | 1.25 ± 0.49 | 1.26 ± 0.36 | 1.3 ± 0.57 | 0.925 ± 0.077 | 1.15 ± 0.34 | 1.08 ± 0.46 | 1.57 ± 0.79 | 1.37 ± 0.096

— the supplement of paper PMC7238544
